Drawing on PMC8316552, this text covers binding for one substance.

Amino acid sequences for entries named in this document (tags omitted). Residues count along the entry.
UniProt Q13501, residues 3-102: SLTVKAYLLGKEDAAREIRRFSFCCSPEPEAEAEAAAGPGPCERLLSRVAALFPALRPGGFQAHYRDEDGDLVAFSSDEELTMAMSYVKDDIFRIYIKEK

This assay concerns the target Gαq WT (transiently overexpressed) (UniProt P50148). Nature of the assay: co-IP; CHO cells transfected with HA-p62 and Gαq, with overexpression of GFP-Flag-PB1-p62; anti-HA immunoprecipitation (Fig. 6f).

Results are given in words; binding and its absence hold for the method and conditions named. In cells and extracts the contact can be indirect. Some entries that bind do so weakly or less than the wild type.

In the case of “GFP-Flag-PB1-p62 (from UniProt Q13501 3-102) (domain or fragment)”, the binding entry is on record as “binds”.
